In publication PMC12431657, “Discovery and mechanistic insights of dibenzoylmethane as a broad spectrum inhibitor of coronavirus” (PLOS Pathogens, 2025):
Like-named read-outs stand apart in the source and are kept apart here. The whole screen tested about 3,300 compounds, of which about 60 (2%) showed an effect of 50% or more. Some of the results follow.

Tested on: HCoV-OC43
Parameters: species or system RD; HTS, protection from HCoV-OC43 induced cell death, luminescent cell viability (CellCounting-Lite 2.0), inhibition rate
Details: 24 h post infection, 1 h compound pre-incubation, 10 µM, inhibitor

| SMILES | OC43 Inhibition rate [%] | OC43 Inhibition rate (OC43 Inhibition rate, 24 h) [%] |
| --- | --- | --- |
| CCCCCCCCCCCCCCCCCCCCCCCCCCCCC [Nonacosane] | -0.1 |  |
| Cc1cc(O)c2c(=O)c3c(O)cc(O)c4c5c(O)cc(O)c6c(=O)c7c(O)cc(C)c8c1c2c(c34)c(c78)c65 [Hypericin] | 23.9 |  |
| C[C@]12CC[C@@H]3c4ccc(O)cc4CC[C@H]3[C@@H]1CC[C@H]2O [Alpha-Estradiol] | -0.1 |  |
| CCCCCCCCCC(=O)NCc1ccc(O)c(OC)c1 [N-Vanillyldecanamide] | -0.1 |  |
| C/C=C1/CN2[C@@H]3C[C@@]45c6ccccc6N[C@]4(O3)[C@@H]2C[C@@H]1[C@H]5C(=O)OC [Picrinine] | 0 |  |
| C[C@@H]1CC[C@]2(C(=O)O)CC[C@]3(C)C(=CC[C@@H]4[C@@]5(C)CC[C@H](O)[C@](C)(C(=O)O)[C@@H]5CC[C@]43C)[C@@H]2[C@]1(C)O [Ilexgenin A] | 0.7 |  |
| C[C@@H]1O[C@@H](O[C@H]2[C@H](O[C@H]3CC[C@@]4(C)[C@@H](CC[C@]5(C)[C@@H]4CC=C4[C@@H]6CC(C)(C)CC[C@]6(C(=O)O[C@@H]6O[C@H](CO[C@@H]7O[C@H](CO)[C@@H](O[C@@H]8O[C@@H](C)[C@H](O)[C@@H](O)[C@H]8O)[C@H](O)[C@H]7O)[C@@H](O)[C@H](O)[C@H]6O)CC[C@]45C)[C@]3(C)CO)OC[C@H](O)[C@@H]2O)[C@H](O)[C@H](O)[C@H]1O [Hederacoside C] | -0.4 |  |
| c1cc2c(cc1O[C@H]1OC[C@H]3[C@@H]1CO[C@@H]3c1ccc3c(c1)OCO3)OCO2 [Sesamolin] | -1.4 |  |
| COc1ccc([C@H]2OC[C@H]3[C@@H]2CO[C@H]3c2cc(OC)c(OC)c(OC)c2)cc1OC [Epimagnolin A] | -0.7 |  |
| COC(=O)c1ccccc1C(=O)O [Monomethyl phthalate] | -0.1 |  |
| CC(C)=CCC/C(C)=C/CC/C(C)=C/CC/C(C)=C/CC/C(C)=C/CC/C(C)=C/CC/C(C)=C/CC/C(C)=C/CC/C(C)=C/CO [Solanesol] | 6.4 |  |
| O=C1O[C@H]([C@@H](O)CO)C(O)=C1O [L-Ascorbic acid] |  | 0.3 |
| C/C=C(/C)C(=O)O[C@@H]1c2c(ccc3ccc(=O)oc23)OC(C)(C)[C@@H]1OC(C)=O [Pteryxin] | -0.2 |  |
| O=c1c(-c2ccc(O)cc2)coc2c([C@@H]3O[C@H](CO)[C@@H](O)[C@H](O)[C@H]3O)c(O)ccc12 [Puerarin] | 1.4 |  |
| COc1cc(O)c(CC=C(C)C)c(O)c1C(=O)/C=C/c1ccc(O)cc1 [Xanthohumol] | 28.2 |  |
| C[C@@H]1CC[C@@]2(OC1)O[C@H]1C[C@H]3[C@@H]4CC=C5C[C@@H](O)C[C@@H](O[C@@H]6O[C@H](C)[C@H](O)[C@H](O[C@@H]7OC[C@@H](O)[C@H](O)[C@H]7O)[C@H]6O[C@@H]6O[C@H](CO)[C@@H](O)[C@H](O)[C@H]6O)[C@]5(C)[C@H]4CC[C@]3(C)[C@H]1[C@@H]2C [Saponin C, from Liriope muscari] | 66.4 |  |
| CC(=O)O[C@]1(C)CC[C@@]23C[C@@H]1C(C)(C)[C@@H]2CC[C@H]3C [Cedryl acetate] | 0 |  |
| C[C@@H]1O[C@@H](O[C@H]2[C@H](OC(=O)[C@]34CCC(C)(C)C[C@H]3C3=CC[C@@H]5[C@@]6(C)C[C@H](O)[C@@H]7O[C@@H]8O[C@H](CO)[C@@H](O)[C@H](O)[C@H]8O[C@@H]8OC[C@H](O)[C@H](O)[C@H]8OC(=O)C[C@@](C)(O)CC(=O)OC[C@@]7(C)[C@@H]6CC[C@@]5(C)[C@]3(C)CC4)OC[C@H](O)[C@@H]2O)[C@H](O)[C@H](O[C@@H]2OC[C@@H](O)[C@H](O)[C@H]2O)[C@H]1O [Tubeimoside I] | 57.2 |  |
| CC(C)C1=CC2=CC[C@@H]3[C@](C)(CCC[C@@]3(C)C(=O)O)[C@H]2CC1 [Abietic acid] | -1 |  |
| C[C@H](CCC(=O)NCC(=O)O)[C@H]1CC[C@H]2[C@@H]3CC[C@@H]4C[C@H](O)CC[C@]4(C)[C@H]3C[C@H](O)[C@]12C [Glycodeoxycholic Acid] |  | 1 |
| COc1cc(O)c2c(=O)cc(-c3ccccc3)oc2c1 [Tectochrysin] | 18.2 |  |
| COc1cc(CCO[C@@H]2O[C@H](CO[C@@H]3O[C@H](CO)[C@@H](O)[C@H](O)[C@H]3O)[C@@H](OC(=O)/C=C/c3ccc(O)c(O)c3)[C@H](O[C@@H]3O[C@@H](C)[C@H](O)[C@@H](O)[C@H]3O)[C@H]2O)ccc1O [Cistanoside A] | -3 |  |
| O=C(O)c1ccc(O)cc1O [2,4-Dihydroxybenzoic acid] | 2.4 |  |
| COC(=O)C1=CO[C@@H](O[C@@H]2O[C@H](CO)[C@@H](O)[C@H](O)[C@H]2O)[C@@H]2[C@@H](C)CC(=O)[C@]12O [Hastatoside] | -0.3 |  |
| C[C@@H]1O[C@@H](O[C@H]2C[C@@H](O)[C@]3(CO)[C@H]4[C@H](O)C[C@]5(C)[C@@H](C6=CC(=O)OC6)CC[C@]5(O)[C@@H]4CC[C@]3(O)C2)[C@H](O)[C@H](O)[C@H]1O [Ouabain (Octahydrate)] | -12.2 |  |
| CC1(C)C[C@H]2C3=CC[C@@H]4[C@@]5(C)CC[C@H](O)[C@@](C)(CO)[C@@H]5CC[C@@]4(C)[C@]3(C)C[C@H](O)[C@@]2(CO)[C@@H](O)[C@@H]1O [Gymnemagenin] | -1 |  |
| COc1ccc(/C=C/C(=O)c2c(O)cc(OC)cc2OC)cc1 [Flavokawain A] | 4 |  |
| C=C1CC23C[C@H]4[C@@H]5[C@@]6(C)C[C@H](OC(C)=O)C[C@]57C(N4C6)[C@@]2(O)[C@H](OC(C)=O)[C@H]1[C@@H](O)[C@H]37 [Guanfu base A] | -0.6 |  |
| C=C(C)[C@@H]1CC[C@]2(C(=O)O)CC[C@]3(C)[C@H](CC[C@@H]4[C@@]5(C)CC[C@H](O)[C@@](C)(CO)[C@@H]5CC[C@]43C)[C@@H]12 [23-Hydroxybetulinic acid] | 7.9 |  |

Entries of single compounds from above:
C/C=C(/C)C(=O)O[C@@H]1c2c(ccc3ccc(=O)oc23)OC(C)(C)[C@@H]1OC(C)=O [Pteryxin] is listed as OC43 Inhibition rate [%]: -0.2
C[C@@H]1O[C@@H](O[C@H]2[C@H](O[C@H]3CC[C@@]4(C)[C@@H](CC[C@]5(C)[C@@H]4CC=C4[C@@H]6CC(C)(C)CC[C@]6(C(=O)O[C@@H]6O[C@H](CO[C@@H]7O[C@H](CO)[C@@H](O[C@@H]8O[C@@H](C)[C@H](O)[C@@H](O)[C@H]8O)[C@H](O)[C@H]7O)[C@@H](O)[C@H](O)[C@H]6O)CC[C@]45C)[C@]3(C)CO)OC[C@H](O)[C@@H]2O)[C@H](O)[C@H](O)[C@H]1O [Hederacoside C] is listed as OC43 Inhibition rate [%]: -0.4
